From the supplement of paper PMC11237882 come the findings set out here.

The other results are listed elsewhere or left out. Values are worked out from sequencing counts and are noisy.

The target of the assay is T1, Homer1 EVH1 domain.
T1 chain: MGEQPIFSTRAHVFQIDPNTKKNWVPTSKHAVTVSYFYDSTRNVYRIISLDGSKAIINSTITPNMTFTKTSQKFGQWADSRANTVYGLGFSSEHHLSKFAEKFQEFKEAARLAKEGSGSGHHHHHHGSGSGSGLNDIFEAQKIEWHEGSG
Kind of assay: enrichment score (AUC of log2 frequency ratio across FACS sorting rounds) (log2 AUC); higher = stronger enrichment for Homer1 EVH1 binding.
As to GVDEYGWIAAAVGWSLWFLTLILLCVDKLMKLTPDE, the enrichment score was 4.51.
In the case of EKWLQDNLIVVAGVFMGIALLQIFGICLAQNLEQME it was 3.7; in that of QPSQQTTPALVLAPAQFLSSSPRPTSSGYSIFHLAG, 5.84.
In the case of LNQRFSITAQLLVLYYILSYEEALLANTKTLSAMQR, the enrichment score amounted to 2.99.
Take GICLLITIQLFVAGLIVLLLDELLQKGYGLGSGISL: the enrichment score amounted to 0.417.
With LICFLVMSSSYLAFRISRLEQQLCSLSWDDPVPGHR, the enrichment score worked out at 2.85.
On to FSVPKYSKFSKPTCFLLEVPEANWAFLVLPSLLILL, for which the enrichment score is -0.204.
In the case of RPRKEPVDEDLYPEHYQKYSDYIKGSNLDAPEPYRM, the enrichment score amounted to 6.2.
As to GGPRTAKLLTSCLFVLLWPLYIFFSSLEAYCHIKGF, the enrichment score was -1.32.
Regarding PHFFCDMSALLKLAFSDTRVNEWVIFIMGGLILVIP, the enrichment score was 2.18.
As for QCSPLGCLIRILIDGISLGLTLRLWDVYLVEGEQAL, the enrichment score was found to be 1.48.
For VPSEIYRFGTQYWFLGCCYFLGLLIPAHIFIPVFYS, the enrichment score stood at 3.16.
In the case of QAVQDSSLPRVARCYRHNRLPVVCWKNSRSGTLLLR, the enrichment score is -0.345.
The same measure for VSSLFLFSVLLFVAVRLCRRSRAAPVGRCSVPEGPF: -0.855.
In the case of LPRGPTTPDEGCLRYFVLGTVAALVALVLNVFYPLV it was -1.44.
In the case of MALLFLLPLVMQGVSRAEMGTADLGPSSVPTPTNVT it was 3.24; in that of MALGVFFGLVFTWLACKGQGSMDEGTADERAPLIRT, 3.78.
Consider MAVLLLLLRALRRGPGPGPRPLWGPGPAWSPGFPAR, for which the enrichment score is 0.931.
In the case of LKRRSSFYIVNLLIPCVLISFLAPLGFYLPAASGEK it was 1.87; in that of SLRWQLLSIIVLMAGQQLSGINAINYYADTIYTSAG, 1.25; in that of CKDNIHKALQFFAKGYGKNNEPLRGYILTFLIAMAL, 2.06.
As to GIMGLYKGLEAKLLQTVLTAALMFLVYEKLTTATFT, the enrichment score stood at 4.11.
With PSNFRDCGQWFRHLLYAVTKLPQITEIGMKRWILPS, the enrichment score is 0.584.
For TWLSFTLFVILVFFPLIAHYYLTTLDEADEAGKRIF, the enrichment score came out at 3.67.
Take VFLLNPWTAGIIVMVLALMTVELFGMMGLIGIKLSA: the enrichment score is 1.8.
Take LIVSCCWLAVLVTMPAALGLWSLYLAPLESSCQTSC: the enrichment score is -0.982.
The same measure for PMYLFLCTLSVSEILFTVAITPRMLADLLSTHHSIT: -1.4; for SLVVGIFGLYIFLFDEATKADPLWGGPSLANVNIAI: -0.383; for GEEYLVKQGIDLSPWGLWKNHVALACMIVIFLTIAY: 3.64.
On to PTRPPATPGRPGSPIWGLPPRGLPSVRVPRHRGLQP, for which the enrichment score was found to be 2.99.
Turning to SYHEVGLLLLFLSVGISIFSVLIYSVEKDDHTSSLT, the enrichment score is 3.95.
Take PGLYFRACWLFLSPATLLALLVYSIVKYQPSEYGSY: the enrichment score turned out to be 2.48.
Take PFASLKKVGQDSIVLLICITVFLSYLPEAGQYSSFF: the enrichment score was 2.17.
The same measure for MATATEQWVLVEMVQALYEAPAYHLILEGILILWII: -0.0412; for NLSETNLLPQSLQHYLPIRSPSLVPCFLFIFFFLLS: 3.14.
For MFDDYSATLPLLIVVILENIAVCFVYGIDKFMEDLK, the enrichment score was 0.899.
Take CGKRVFAVTETLQMSIYHFAGLFVLLCLGLGSALLS: the enrichment score is 3.88.
In the case of NLRQIMVISVLAAAVSLLYFSVVIIRNKYGRLTRDK it was 2.29.
For MRALEGPGLSLLCLVLALPALLPVPAVRGVAETPTY, the enrichment score was 2.84.
Regarding DLLVTSLGVVWVVLHFALLNAYTYMMGACVIVFRFF, the enrichment score came to 1.37.
The same measure for SVSRSRSRSRSRSRSRSPPPVSKRESKSRSRSKSPP: -2.13.
For the molecule MPQINKEHSQPYHVLQHRRRRRELGPCLRQAICRFA, the enrichment score was found to be 1.02.
The same measure for HRSPHPSRQAIFCWMSFSAYQTAFICLGLLVQQIIF: 0.723; for PLFYTLFLIIPCLGLSFLTVLVFYLPSDEGEKLSLS: 1.65.
